This passage reports T/C and survivor count results from PubChem BioAssay AID212 (DTP/NCI, 2004).

The list is a part of this screen's results and no random one: it gathers tests that were run many times, whatever their T/C, doses with no T/C, and many T/C values between a quarter and a half above the control. Further doses and runs are listed elsewhere. T/C: endpoint of the treated group in % of that of the vehicle group. Schedule codes are those of the source, taken here to give the interval after Q, in days (D) or hours (H), and the number of doses after X. Some T/C values carry the count of animals alive at the toxicity check (mostly the fifth day); where none is given, no animal had died by that day. Some doses were run more than once; the values are given in rising order. Some entries give survivors of the animals treated and no T/C: the source holds a T/C of zero for them, seemingly a mark for toxic or unscored doses. Counts of survivors are from the toxicity check (mostly the fifth day) where no day follows; animals may have died later.

For this test, the system named is BDF1 mice, colon carcinoma 38 sc, T/C %. In words: NCI In Vivo Anticancer Drug Screen. Data for tumor model Colon Carcinoma 38 (subcutaneous) in B6D2F1 (BDF1) mice. The conditions noted are these: T/C endpoint: median tumor weight (est.), higher T/C = larger tumour; for T/C: evaluated on day 20. The gist of the method: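 Compound antitumor activity was assessed in mice carrying transplantable tumors. Survival or tumor size was recorded, and each value is the treated-group measurement divided by that of the vehicle-treated control group.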

Where [1] appears, read: dose: 100.0 mg/kg/injection, schedule: Q07DX002 (ip), vehicle: saline.
[2] abbreviates: dose: 50.0 mg/kg/injection, schedule: Q07DX002 (ip), vehicle: saline.
The mark [3] stands for this setting: dose: 128.0 mg/kg/injection, schedule: Q07DX002 (ip), vehicle: saline.
Where [4] appears, read: dose: 20.0 mg/kg/injection, schedule: Q07DX002 (ip), vehicle: Klucel (hydroxypropylcellulose) (HPC).
The mark [5] stands for this setting: dose: 40.0 mg/kg/injection, schedule: Q07DX002 (ip), vehicle: Klucel (hydroxypropylcellulose) (HPC).
[6] abbreviates: dose: 80.0 mg/kg/injection, schedule: Q07DX002 (ip), vehicle: Klucel (hydroxypropylcellulose) (HPC).
Setting [7] is: dose: 160.0 mg/kg/injection, schedule: Q07DX002 (ip), vehicle: Klucel (hydroxypropylcellulose) (HPC).

`O=[Te]=O`: the T/C is, setting by setting: (dose: 3.12 mg/kg/injection, schedule: Q07DX002 (ip), vehicle: saline) 135 % of control; (dose: 6.25 mg/kg/injection, schedule: Q07DX002 (ip), vehicle: saline) 141 % of control; (dose: 12.5 mg/kg/injection, schedule: Q07DX002 (ip), vehicle: saline) 129 % of control. For the same compound, the survivor count under setting [1] is listed as 5 of 10 on day 20.

`CCCCNC(C)C1(O)Cc2c(O)c3c(c(O)c2C(OC2CC(N)C(O)C(C)O2)C1)C(=O)c1c(OC)cccc1C3=O` (stereo not given): the T/C (dose: 20.0 mg/kg/injection, schedule: Q07DX002 (ip), vehicle: saline) is 128 % of control [8 of 10 alive on day 20]. The survivor count (dose: 640.0 mg/kg/injection, schedule: Q07DX002 (ip), vehicle: saline) is 6 of 10 on day 20.

In the case of `Nc1nc(F)nc2c1ncn2C1OC(COP(=O)(O)O)C(O)C1O` (stereo not given), the T/C under setting [2] was 143 % of control. The survivor count (dose: 800.0 mg/kg/injection, schedule: Q07DX002 (ip), vehicle: saline) is given as 6 of 10 on day 20.

Consider `C[CH2][Sn]([CH2]C)([O]S(C)(=O)=O)[O]S(C)(=O)=O`, for which the T/C (dose: 1.56 mg/kg/injection, schedule: Q07DX002 (ip), vehicle: saline) was 129 % of control [9 of 10 alive on day 20]. Moreover, the survivor count is 1 of 10 on day 20 and 6 of 10 on day 20 (dose: 25.0 mg/kg/injection, schedule: Q07DX002 (ip), vehicle: saline); 0 of 10 on day 20 under setting [2].

For `Cc1c(N)nc([C@H](CC(N)=O)NC[C@H](N)C(N)=O)nc1C(=O)N[C@H](C(=O)N[C@H](C)[C@@H](O)[C@H](C)C(=O)N[C@H](C(=O)NCCc1nc(-c2nc(C(=O)NCCC[S+](C)C)cs2)cs1)[C@@H](C)O)C(OC1OC(CO)C(O)C(O)C1OC1OC(CO)C(O)C(OC(N)=O)C1O)c1cnc[nH]1` (stereo not given in full), the T/C is 128 % of control (dose: 1.5 mg/kg/injection, schedule: Q07DX003 (ip), vehicle: saline); 22 [9 of 10 alive on day 20], 68, 86, 112 % of control [9 of 10 alive on day 20] (dose: 16.0 mg/kg/injection, schedule: Q07DX002 (ip), vehicle: saline); 24, 40 [9 of 10 alive on day 20], 52, 104 % of control (dose: 32.0 mg/kg/injection, schedule: Q07DX002 (ip), vehicle: saline); 11 [9 of 10 alive on day 20], 32, 47 [9 of 10 alive on day 20], 59 % of control (dose: 64.0 mg/kg/injection, schedule: Q07DX002 (ip), vehicle: saline); 23 [9 of 10 alive on day 20], 25, 26 % of control [8 of 10 alive on day 20] under setting [3]. Besides, the survivor count runs as follows: under setting [3], 6 of 10 on day 20; (dose: 256.0 mg/kg/injection, schedule: Q07DX002 (ip), vehicle: saline) 0 of 10 on day 20.

In the case of `C=C1C(=O)C23[C@H](O)C1CC[C@H]2[C@]12COC3(O)[C@@H](O)[C@@H]1C(C)(C)CC[C@@H]2O`, the T/C runs as follows: (dose: 1.56 mg/kg/injection, schedule: Q07DX002 (ip), vehicle: saline with Tween-80) 132 % of control; (dose: 6.25 mg/kg/injection, schedule: Q07DX002 (ip), vehicle: saline with Tween-80) 126 % of control; (dose: 12.5 mg/kg/injection, schedule: Q07DX002 (ip), vehicle: saline with Tween-80) 128 % of control; under setting [4], 146 % of control. Moreover, the survivor count is 5 of 10 on day 20 under setting [5]; 2 of 10 on day 20 and 6 of 10 on day 20 (dose: 50.0 mg/kg/injection, schedule: Q07DX002 (ip), vehicle: saline with Tween-80); 0 of 10 on day 20 under setting [6]; 0 of 10 on day 20 under setting [7].

In the case of `ClC1=C(Cl)C2(Cl)C3C(Cl)C(Cl)CC3C1(Cl)C2(Cl)Cl` (stereo not given), for the setting “dose: 25.0 mg/kg/injection, schedule: Q07DX002 (ip), vehicle: other”, the T/C was 133 % of control. Also, the survivor count (dose: 100.0 mg/kg/injection, schedule: Q07DX002 (ip), vehicle: other) is 6 of 10 on day 20; the survivor count (dose: 200.0 mg/kg/injection, schedule: Q07DX002 (ip), vehicle: other) was 1 of 10 on day 20 and 4 of 10 on day 20; the survivor count (dose: 400.0 mg/kg/injection, schedule: Q07DX002 (ip), vehicle: other) was 0 of 10 on day 20 and 2 of 10 on day 20; the survivor count (dose: 800.0 mg/kg/injection, schedule: Q07DX002 (ip), vehicle: other) was 0 of 10 on day 20.

As for `CCN(CC)CC[n+]1ccc2c(C)c3[nH]c4ccc(O)cc4c3c(C)c2c1`, the survivor count runs as follows: under setting [1], 0 of 10 on day 20 and 3 of 10 on day 20; (dose: 100.0 mg/kg/injection, schedule: Q07DX002 (ip), vehicle: suspension in saline) 0 of 10 on day 20.

For `CN=S(=O)(OCCCCCOS(=O)(=NC)c1ccccc1)c1ccccc1` (stereo not given), the T/C (dose: 100.0 mg/kg/injection, schedule: Q07DX002 (ip), vehicle: saline with Tween-80) is 145 % of control. Moreover, the survivor count (dose: 400.0 mg/kg/injection, schedule: Q07DX002 (ip), vehicle: saline with Tween-80) is recorded as 5 of 10 on day 20.

Regarding `Nc1nc2c(ncn2C2OC(CO)C(O)C2O)c(=O)[nH]1.Nc1nc2c(ncn2C2OC(CO)C(O)C2O)c(=O)[nH]1.[NH2-].[NH2-].[Pt+2]` (stereo not given), the T/C (dose: 400.0 mg/kg/injection, schedule: Q07DX002 (ip), vehicle: water) was 128 % of control [9 of 10 alive].

For `NC(=O)c1ncn(C2OC(CO)C(O)C2O)c1O` (stereo not given), for the setting “dose: 50.0 mg/kg/injection, schedule: Q07DX002 (ip), vehicle: Klucel (hydroxypropylcellulose) (HPC)”, the T/C is 125 % of control.

For the compound `COc1cccc2c1C(=O)c1c(O)c3c(c(O)c1C2=O)C[C@@](O)(C(O)CO)C[C@@H]3OC1CC(N(Cc2ccccc2)Cc2ccccc2)C(O)C(C)O1` (stereo not given in full), the survivor count (dose: 200.0 mg/kg/injection, schedule: Q07DX002 (ip), vehicle: water) is 0 of 10 on day 20.

Turning to `C(CC1CO1)C1CO1` (stereo not given), the T/C is 133 % of control (dose: 10.0 mg/kg/injection, schedule: Q07DX002 (ip), vehicle: Klucel (hydroxypropylcellulose) (HPC)); 132 [9 of 10 alive on day 20] and 135 % of control under setting [4]; 140 % of control under setting [5]; 131 % of control under setting [6]; 144 % of control under setting [7].

As to `CC[C@]1(O)C[C@H]2CN(CCc3c([nH]c4ccccc34)[C@@](C(=O)OC)(c3cc4c(cc3OC)N(C=O)[C@H]3[C@@](O)(C(=O)OC)[C@H](OC(C)=O)[C@]5(CC)C=CCN6CC[C@]43[C@@H]65)C2)C1`, the T/C (dose: 0.5 mg/kg/injection, schedule: Q07DX002 (ip), vehicle: saline) was 128 % of control. Further, the survivor count (dose: 8.0 mg/kg/injection, schedule: Q07DX002 (ip), vehicle: saline) is 3 of 10 on day 20 and 4 of 10 on day 20.
